System: β-glucosidase
Assay: Kinetic analyses, β-glucosidase
Type: biochemical
Conditions: [S] = 60 micrograms/ml
Experimental: Absorbance curve data as previously exemplified reveal differences in enzymatic activity under different gas atmospheres both in terms of yield and in terms of rate. Yield can be calculated after equilibrium is reached by comparative curve differencing, and through formal linearization and calculation--which are also necessary for rate calculations. Rate differences are calculated using commercially available computer programs (ENZFITTER, GRAFIT, ENZPACK, PEAKFIT) which transform the initial uv/vis absorbance data curve (in these examples, a power curve) into straight lines (linear regression of power curve). These lines may be expressed as a mathematical equation in which the slope is approximately the rate, and the limit Y-intercept is approximately the yield. […] The examples and figures described below represent these steps in exemplary form.
Table 1 illustrates Michaelis-Menten enzyme kinetics calculations of Vmax and Km, and the rates for each reaction. Vmax is the limiting rate, Km is the Michaelis-Menten constant.
FIG. 46 and Table 2 illustrate the same as FIG. 45 and Table 1, however, for xenon reactions. It is readily apparent that the Vmax and Km for xenon are larger.
FIG. 47, Table 3, FIG. 48 and Table 4 illustrate the first-order power curve regression rate linear transformations for the above air and xenon gassed reactions, showing an approximation to the Michaelis-Menten data, wherein the Xe/Air rate relationship is in the same ratio as above.
FIG. 49, FIG. 50 and Table 5 illustrate the same first-order rate approximation regression linearizations for all gases studied in this run.

Q: Which results are given for [Xe] [Xe, xenon]?
A: Abs [S3] (Time 0.0000): 0.1261; Abs [S3] (Time 15.0000): 0.1590; Abs [S3] (Time 30.0000): 0.1928; Abs [S3] (Time 45.0000): 0.2217; Abs [S3] (Time 60.0000): 0.2514; Abs [S3] (Time 75.0000): 0.2811; Abs [S3] (Time 90.0000): 0.3085; Abs [S3] (Time 105.0000): 0.3349; Abs [S3] (Time 120.0000): 0.3608; Abs [S3] (Time 135.0000): 0.3831; Abs [S3] (Time 150.0000): 0.4065; Abs [S3] (Time 165.0000): 0.4300; Abs [S3] (Time 180.0000): 0.4511; Abs [S3] (Time 195.0000): 0.4719; Abs [S3] (Time 210.0000): 0.4940; Abs [S3] (Time 225.0000): 0.5112; Abs [S3] (Time 240.0000): 0.5311; Abs [S3] (Time 255.0000): 0.5503; Abs [S3] (Time 270.0000): 0.5675; Abs [S3] (Time 285.0000): 0.5842; Abs [S3] (Time 300.0000): 0.6011; Abs [S3] (Time 315.0000): 0.6165; Abs [S3] (Time 330.0000): 0.6313; Abs [S3] (Time 345.0000): 0.6460; Abs [S3] (Time 360.0000): 0.6588; Abs [S3] (Time 375.0000): 0.6711; Abs [S3] (Time 390.0000): 0.6834
